Results from PMC9026428 (Pharmaceutics, 2022).
Like-named read-outs stand apart in the source and are kept apart here.

Tests used:
[1] = test system: Candida glabrata DSM 6128
Method: (§1) The assessment of antifungal potential of synthesized agents was carried out using four reference strains (C. albicans ATCC 10231, C. albicans SC5314, C. glabrata DSM […] and C. krusei DSM […]) and six clinical isolates of fluconazole-resistant C. albicans that were provided by the Hospital of Medical University of Gdansk, Poland. Moreover, four C. albicans isolates, assigned as B3, B4, Gu4 and Gu5, were used for investigation whether the synthesized fluconazole derivatives were effectively removed from the yeast cells by the drug efflux transporters, as in the case of fluconazole. These strains were kindly provided by Prof. Joachim Morschhäuser from University of Würzburg (Würzburg, Germany). Strains Gu4 and B3 were fluconazole-sensitive isolates obtained from early infection episodes, while Gu5 and B4 were the corresponding fluconazole-resistant isolates obtained from later episodes in the same patients treated with fluconazole. The lack of susceptibility of the Gu5 strain to fluconazole was a consequence of overexpression of CDR1/2 genes encoding ABC transporters, whereas the resistance of B4 strain was caused by overexpression of the MDR1 gene encoding a membrane transport protein of the major facilitator superfamily (MFS). All of these Candida spp. strains were maintained on YPD agar plates (1% (w/v) yeast extract, 2% (w/v) peptone, 2% (w/v) glucose, 2% (w/v) agar) at 30 °C for 16–24 h. For all of the assays aimed at assessing the antifungal potential of the synthesized agents, the yeasts were cultivated at 37 °C in RPMI 1640 medium (with L-glutamine, without sodium bicarbonate, Sigma-Aldrich, Darmstadt, Germany)) buffered to a pH of 7.0 with 0.165 M morpholinepropanesulfonic acid (MOPS) buffer (Sigma-Aldrich). In this study, we used the human foreskin fibroblast cell line Hs27 (ATCC CRL 1634TM) and the human endothelial cell line HUVEC (C2519A), purchased from Lonza Group AG, (Basel, Switzerland). The Hs27 cells were maintained in cell media consisting of Dulbecco’s modified Eagles medium (DMEM), (Corning, Arizona, USA) with 10% fetal bovine serum (FBS), (Corning, Port Elizabeth, South Africa), 1% penicillin/streptomycin (Sigma-Aldrich Inc., Darmstadt, Germany), and 1% L-glutamine (Corning, Arizona, USA). The human endothelial cell line was maintained in cell media consisting of Endothelial Cell Growth Medium-2 Single Quots Kit (Lonza, USA). Both cell lines were cultured in an incubator at 37 °C and 5% CO2.
(§2) Antifungal activity of the tested compounds against yeast cells was determined in 96-well plates as described in the CLSI document M27-A3 [39], with minor modifications (CLSI, 2008). […] The plates were incubated for 24 h at 37 °C. Each test was performed in triplicate. The final concentration of DMSO was ensured to be around 1% in all experiments.
(§3) For determination of minimum fungicidal concentrations (MFC), small aliquots of suspensions (around 10 μL) from each well were transferred using the pipette to YPD agar plates without inhibitors and incubated for 24 h at 37 °C.

[2] = test system: Candida albicans B3
Method: as §1, §2, §3

[3] = test system: Candida albicans 574
Method: as §1, §2, §3

[4] = test system: Candida albicans ATCC 10231
Method: as §1, §2, §3

[5] = test system: Candida krusei DSM 11226
Method: as §1, §2, §3

[6] = test system: Candida albicans Gu4
Method: as §1, §2, §3

[7] = test system: Candida albicans B4
Method: as §1, §2, §3

[8] = test system: Candida albicans SC 5314
Method: as §1, §2, §3

[9] = test system: Candida albicans 48
Method: as §1, §2, §3

[10] = test system: Candida albicans 190
Method: as §1, §2, §3

[11] = test system: Candida albicans 604
Method: as §1, §2, §3

[12] = test system: Candida albicans Gu5
Method: as §1, §2, §3

[13] = test system: Candida albicans 247
Method: as §1, §2, §3

[14] = test system: Candida albicans 138
Method: as §1, §2, §3

CC[C@H](C)[C@H](NC(=O)[C@H](CCCCN)NC(=O)[C@H](CCCCN)NC(=O)[C@H](C)NC(=O)[C@H](CC(C)C)NC(=O)[C@H](C)NC(=O)[C@H](C)NC(=O)[C@H](CC(C)C)NC(=O)[C@H](C)NC(=O)[C@H](CCCCN)NC(=O)[C@H](CC(C)C)NC(=O)[C@H](CC(N)=O)NC(=O)[C@@H](NC(=O)[C@H](CCCCN)NC(=O)CNC(=O)[C@H](CC(C)C)NC(=O)[C@H](CC(C)C)NC(=O)[C@H](Cc1ccc(O)cc1)NC(=O)CNC(=O)[C@H](C)NC(=O)CCCC(=O)OC(Cn1cncn1)(Cn1cncn1)c1ccc(F)cc1F)[C@@H](C)CC)C(=O)N[C@@H](CC(C)C)C(N)=O [FLCpOH-TP10-NH2]
Selectivity index (SI) ([1]; IC90 HUVEC (72 h) / MIC50 (24 h) Candida glabrata DSM 6128): 0.55 | Selectivity index (SI) ([1]; IC90 Hs27 (72 h) / MIC50 (24 h) Candida glabrata DSM 6128): 0.46 | Selectivity index (SI) ([2]; IC90 HUVEC (72 h) / MIC50 (24 h) Candida albicans B3): 1.12 | Selectivity index (SI) ([2]; IC90 Hs27 (72 h) / MIC50 (24 h) Candida albicans B3): 0.92 | Selectivity index (SI) ([3]; IC90 HUVEC (72 h) / MIC50 (24 h) Candida albicans 574): 0.76 | Selectivity index (SI) ([3]; IC90 Hs27 (72 h) / MIC50 (24 h) Candida albicans 574): 0.64 | Selectivity index (SI) ([4]; IC90 HUVEC (72 h) / MIC50 (24 h) Candida albicans ATCC 10231): 2.29 | Selectivity index (SI) ([4]; IC90 Hs27 (72 h) / MIC50 (24 h) Candida albicans ATCC 10231): 1.92 | Selectivity index (SI) ([5]; IC90 HUVEC (72 h) / MIC50 (24 h) Candida krusei DSM 11226): 0.55 | Selectivity index (SI) ([5]; IC90 Hs27 (72 h) / MIC50 (24 h) Candida krusei DSM 11226): 0.46 | Selectivity index (SI) ([6]; IC90 HUVEC (72 h) / MIC50 (24 h) Candida albicans Gu4): 0.76 | Selectivity index (SI) ([6]; IC90 Hs27 (72 h) / MIC50 (24 h) Candida albicans Gu4): 0.64 | Selectivity index (SI) ([7]; IC90 HUVEC (72 h) / MIC50 (24 h) Candida albicans B4): 0.55 | Selectivity index (SI) ([7]; IC90 Hs27 (72 h) / MIC50 (24 h) Candida albicans B4): 0.46 | Selectivity index (SI) ([8]; IC90 HUVEC (72 h) / MIC50 (24 h) Candida albicans SC 5314): 4.29 | Selectivity index (SI) ([8]; IC90 Hs27 (72 h) / MIC50 (24 h) Candida albicans SC 5314): 3.60 | Selectivity index (SI) ([9]; IC90 HUVEC (72 h) / MIC50 (24 h) Candida albicans 48): 0.76 | Selectivity index (SI) ([9]; IC90 Hs27 (72 h) / MIC50 (24 h) Candida albicans 48): 0.64 | Selectivity index (SI) ([10]; IC90 HUVEC (72 h) / MIC50 (24 h) Candida albicans 190): 0.76 | Selectivity index (SI) ([10]; IC90 Hs27 (72 h) / MIC50 (24 h) Candida albicans 190): 0.64 | Selectivity index (SI) ([11]; IC90 HUVEC (72 h) / MIC50 (24 h) Candida albicans 604): 0.76 | Selectivity index (SI) ([11]; IC90 Hs27 (72 h) / MIC50 (24 h) Candida albicans 604): 0.64 | Selectivity index (SI) ([12]; IC90 HUVEC (72 h) / MIC50 (24 h) Candida albicans Gu5): 0.55 | Selectivity index (SI) ([12]; IC90 Hs27 (72 h) / MIC50 (24 h) Candida albicans Gu5): 0.46 | Selectivity index (SI) ([13]; IC90 HUVEC (72 h) / MIC50 (24 h) Candida albicans 247): 0.76 | Selectivity index (SI) ([13]; IC90 Hs27 (72 h) / MIC50 (24 h) Candida albicans 247): 0.64 | Selectivity index (SI) ([14]; IC90 HUVEC (72 h) / MIC50 (24 h) Candida albicans 138): 0.76 | Selectivity index (SI) ([14]; IC90 Hs27 (72 h) / MIC50 (24 h) Candida albicans 138): 0.64
